In the supplement of paper PMC6411743:
± gives the standard deviation of the averaged measurements. The list shows a part of the results.

Target: T1, ZW10 (UniProt O43264)
T1 sequence (whole entry): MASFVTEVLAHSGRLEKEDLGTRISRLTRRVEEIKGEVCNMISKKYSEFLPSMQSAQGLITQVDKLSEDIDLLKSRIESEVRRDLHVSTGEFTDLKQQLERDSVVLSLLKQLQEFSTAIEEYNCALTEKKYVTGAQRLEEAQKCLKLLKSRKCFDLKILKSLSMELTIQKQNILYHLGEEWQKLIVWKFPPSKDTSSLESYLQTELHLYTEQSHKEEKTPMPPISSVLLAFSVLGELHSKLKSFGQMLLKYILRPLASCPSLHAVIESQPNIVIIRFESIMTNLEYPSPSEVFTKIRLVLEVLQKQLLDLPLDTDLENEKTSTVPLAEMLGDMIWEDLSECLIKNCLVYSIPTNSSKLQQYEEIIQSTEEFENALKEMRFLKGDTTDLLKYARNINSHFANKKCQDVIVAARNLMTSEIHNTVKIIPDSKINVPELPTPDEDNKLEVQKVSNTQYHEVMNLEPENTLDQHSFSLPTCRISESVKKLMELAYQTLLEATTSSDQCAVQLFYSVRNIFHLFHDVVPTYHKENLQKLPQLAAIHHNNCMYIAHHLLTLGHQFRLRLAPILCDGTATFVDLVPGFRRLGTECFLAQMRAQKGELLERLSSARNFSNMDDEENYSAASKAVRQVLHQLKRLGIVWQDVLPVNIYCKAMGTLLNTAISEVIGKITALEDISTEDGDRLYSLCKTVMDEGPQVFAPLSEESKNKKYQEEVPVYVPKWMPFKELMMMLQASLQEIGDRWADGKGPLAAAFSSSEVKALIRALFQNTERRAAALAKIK
Assay: NP40-soluble protein abundance relative to vehicle (solubility fold change) (ratio); higher = more soluble protein in presence of GTP
Experimental: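 Solubility proteome profiling in Jurkat crude lysate. Lysate was treated with Mg-GTP (0.1-10 mM) for 10 min at room temperature and 3 min at 37 °C, then solubilised with 0.8% NP40 and benzonase, followed by ultracentrifugation. Proteins were quantified by TMT10 LC-MS/MS; the value is the NP40-soluble abundance relative to the NP40-processed vehicle, from 3 independent experiments.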

Nc1nc2c(ncn2[C@@H]2O[C@H](COP(=O)(O)OP(=O)(O)OP(=O)(O)O)[C@@H](O)[C@H]2O)c(=O)[nH]1 [guanosine triphosphate] was tested, and the NP40-soluble protein abundance (concentration: 0.1mM) was 1.01 ± 0.025, the NP40-soluble protein abundance (concentration: 0.5mM) was 1.04 ± 0.05 and the NP40-soluble protein abundance (concentration: 1mM) was 1.02 ± 0.081. For the same molecule, the NP40-soluble protein abundance (concentration: 2mM) was 1.03 ± 0.054, the NP40-soluble protein abundance (concentration: 4mM) was 1.02 ± 0.053 and the NP40-soluble protein abundance (concentration: 6mM) was 1.01 ± 0.051. It also gave an NP40-soluble protein abundance (concentration: 8mM) of 1.03 ± 0.065 and an NP40-soluble protein abundance (concentration: 10mM) of 0.984 ± 0.05.
